The results in this text go back to PMC3806365.

Chains of the proteins cited; added tags and fusions are not shown.
UniProt Q61316: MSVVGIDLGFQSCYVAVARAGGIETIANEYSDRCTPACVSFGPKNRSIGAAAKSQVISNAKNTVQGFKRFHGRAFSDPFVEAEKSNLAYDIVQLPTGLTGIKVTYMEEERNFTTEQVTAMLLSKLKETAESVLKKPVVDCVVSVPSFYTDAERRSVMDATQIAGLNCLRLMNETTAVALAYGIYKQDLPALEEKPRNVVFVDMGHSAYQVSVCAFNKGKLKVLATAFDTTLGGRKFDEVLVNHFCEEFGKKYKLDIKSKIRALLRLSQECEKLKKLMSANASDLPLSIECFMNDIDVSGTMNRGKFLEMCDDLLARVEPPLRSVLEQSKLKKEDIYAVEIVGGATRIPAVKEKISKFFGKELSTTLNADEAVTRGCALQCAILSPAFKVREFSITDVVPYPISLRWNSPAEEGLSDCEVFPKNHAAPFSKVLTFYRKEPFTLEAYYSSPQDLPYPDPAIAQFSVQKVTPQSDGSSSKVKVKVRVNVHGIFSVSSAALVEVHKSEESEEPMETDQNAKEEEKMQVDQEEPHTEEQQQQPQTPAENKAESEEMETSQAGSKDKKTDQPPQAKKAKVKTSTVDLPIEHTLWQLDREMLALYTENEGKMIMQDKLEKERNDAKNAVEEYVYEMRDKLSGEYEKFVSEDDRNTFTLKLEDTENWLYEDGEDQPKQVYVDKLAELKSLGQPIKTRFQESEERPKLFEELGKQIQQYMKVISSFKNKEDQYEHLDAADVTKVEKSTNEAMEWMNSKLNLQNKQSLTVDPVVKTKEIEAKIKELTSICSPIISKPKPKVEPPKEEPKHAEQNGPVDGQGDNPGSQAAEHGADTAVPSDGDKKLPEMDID
UniProt P11798: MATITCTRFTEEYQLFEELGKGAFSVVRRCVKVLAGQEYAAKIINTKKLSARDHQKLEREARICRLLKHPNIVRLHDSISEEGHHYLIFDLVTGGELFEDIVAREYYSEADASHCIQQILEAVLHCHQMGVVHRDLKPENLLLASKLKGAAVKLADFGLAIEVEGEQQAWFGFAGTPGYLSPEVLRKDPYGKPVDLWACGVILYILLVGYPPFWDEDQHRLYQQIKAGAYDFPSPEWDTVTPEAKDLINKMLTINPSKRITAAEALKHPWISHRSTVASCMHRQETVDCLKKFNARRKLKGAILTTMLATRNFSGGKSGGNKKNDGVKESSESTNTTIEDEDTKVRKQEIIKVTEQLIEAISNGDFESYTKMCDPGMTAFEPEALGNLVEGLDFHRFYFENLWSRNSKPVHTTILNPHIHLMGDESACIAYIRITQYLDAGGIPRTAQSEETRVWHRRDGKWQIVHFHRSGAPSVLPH
UniProt Q61699: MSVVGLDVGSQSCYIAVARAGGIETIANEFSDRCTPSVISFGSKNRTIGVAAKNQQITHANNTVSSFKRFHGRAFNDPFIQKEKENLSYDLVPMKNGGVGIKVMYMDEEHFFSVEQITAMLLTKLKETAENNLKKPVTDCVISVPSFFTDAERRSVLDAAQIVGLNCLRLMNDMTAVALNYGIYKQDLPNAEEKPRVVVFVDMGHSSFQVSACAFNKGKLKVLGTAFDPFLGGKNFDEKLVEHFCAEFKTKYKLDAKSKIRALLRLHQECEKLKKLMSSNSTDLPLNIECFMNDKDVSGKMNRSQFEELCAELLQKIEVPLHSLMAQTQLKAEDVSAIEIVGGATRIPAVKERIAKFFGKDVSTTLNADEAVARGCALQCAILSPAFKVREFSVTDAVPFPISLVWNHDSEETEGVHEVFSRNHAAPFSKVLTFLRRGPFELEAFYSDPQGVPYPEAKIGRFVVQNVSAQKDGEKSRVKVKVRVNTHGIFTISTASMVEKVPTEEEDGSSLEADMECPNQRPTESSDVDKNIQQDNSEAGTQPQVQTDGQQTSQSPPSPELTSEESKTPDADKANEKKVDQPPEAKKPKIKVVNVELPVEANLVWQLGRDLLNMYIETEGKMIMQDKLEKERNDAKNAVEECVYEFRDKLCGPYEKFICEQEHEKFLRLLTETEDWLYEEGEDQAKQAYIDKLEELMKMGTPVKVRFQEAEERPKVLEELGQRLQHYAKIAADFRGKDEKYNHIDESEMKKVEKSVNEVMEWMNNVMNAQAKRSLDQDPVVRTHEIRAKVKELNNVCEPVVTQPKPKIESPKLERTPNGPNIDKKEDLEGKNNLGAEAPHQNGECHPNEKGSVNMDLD

Assay [1] addresses T1, Nogo-A/RTN4-A (endogenous, mouse) (mouse (endogenous in brain and hippocampal neurons)) (UniProt Q99P72).
T1 sequence: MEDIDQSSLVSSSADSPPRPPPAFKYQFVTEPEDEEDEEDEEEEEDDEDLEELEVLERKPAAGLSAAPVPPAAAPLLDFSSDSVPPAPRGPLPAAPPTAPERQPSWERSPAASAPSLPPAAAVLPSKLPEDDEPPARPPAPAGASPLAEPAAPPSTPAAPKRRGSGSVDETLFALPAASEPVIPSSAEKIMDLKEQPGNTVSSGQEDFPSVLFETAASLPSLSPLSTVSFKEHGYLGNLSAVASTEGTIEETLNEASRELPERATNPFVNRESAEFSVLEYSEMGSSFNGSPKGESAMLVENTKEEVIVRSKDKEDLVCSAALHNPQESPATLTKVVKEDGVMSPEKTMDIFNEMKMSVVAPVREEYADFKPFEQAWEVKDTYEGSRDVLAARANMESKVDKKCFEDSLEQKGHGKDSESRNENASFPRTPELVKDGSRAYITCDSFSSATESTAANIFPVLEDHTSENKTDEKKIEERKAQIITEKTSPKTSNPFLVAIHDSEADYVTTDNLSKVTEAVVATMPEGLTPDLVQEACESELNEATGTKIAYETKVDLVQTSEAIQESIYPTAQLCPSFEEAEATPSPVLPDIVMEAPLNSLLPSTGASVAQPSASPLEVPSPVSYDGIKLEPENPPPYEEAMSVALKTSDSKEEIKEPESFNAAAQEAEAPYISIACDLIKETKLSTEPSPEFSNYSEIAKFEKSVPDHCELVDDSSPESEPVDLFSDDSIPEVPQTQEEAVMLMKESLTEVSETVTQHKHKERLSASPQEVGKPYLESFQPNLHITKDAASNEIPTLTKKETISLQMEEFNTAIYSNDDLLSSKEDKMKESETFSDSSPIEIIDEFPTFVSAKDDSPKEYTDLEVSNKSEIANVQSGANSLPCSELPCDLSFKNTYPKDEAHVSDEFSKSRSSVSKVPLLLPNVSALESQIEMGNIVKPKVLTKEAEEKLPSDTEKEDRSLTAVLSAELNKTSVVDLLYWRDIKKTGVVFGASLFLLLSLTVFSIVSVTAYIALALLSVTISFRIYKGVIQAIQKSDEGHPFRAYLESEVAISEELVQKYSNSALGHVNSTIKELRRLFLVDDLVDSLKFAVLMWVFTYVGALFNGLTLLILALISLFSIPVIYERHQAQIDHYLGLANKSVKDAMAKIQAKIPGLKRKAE
Briefly: co-IP; endogenous proteins, brain lysate from a 4-week-old mouse, 1 mg of total protein; 6 μg of rabbit anti-Nogo-A/B (Bianca), rabbit anti-Apg-1 or rabbit IgG; Western blot. A general note: A western blot detects proteins with antibodies after separation by electrophoresis.

Assay [2] concerns the target T2, Nogo-A (RTN4-A), endogenous (mouse (endogenous in mouse brain)) (UniProt Q99P72).
T2 sequence: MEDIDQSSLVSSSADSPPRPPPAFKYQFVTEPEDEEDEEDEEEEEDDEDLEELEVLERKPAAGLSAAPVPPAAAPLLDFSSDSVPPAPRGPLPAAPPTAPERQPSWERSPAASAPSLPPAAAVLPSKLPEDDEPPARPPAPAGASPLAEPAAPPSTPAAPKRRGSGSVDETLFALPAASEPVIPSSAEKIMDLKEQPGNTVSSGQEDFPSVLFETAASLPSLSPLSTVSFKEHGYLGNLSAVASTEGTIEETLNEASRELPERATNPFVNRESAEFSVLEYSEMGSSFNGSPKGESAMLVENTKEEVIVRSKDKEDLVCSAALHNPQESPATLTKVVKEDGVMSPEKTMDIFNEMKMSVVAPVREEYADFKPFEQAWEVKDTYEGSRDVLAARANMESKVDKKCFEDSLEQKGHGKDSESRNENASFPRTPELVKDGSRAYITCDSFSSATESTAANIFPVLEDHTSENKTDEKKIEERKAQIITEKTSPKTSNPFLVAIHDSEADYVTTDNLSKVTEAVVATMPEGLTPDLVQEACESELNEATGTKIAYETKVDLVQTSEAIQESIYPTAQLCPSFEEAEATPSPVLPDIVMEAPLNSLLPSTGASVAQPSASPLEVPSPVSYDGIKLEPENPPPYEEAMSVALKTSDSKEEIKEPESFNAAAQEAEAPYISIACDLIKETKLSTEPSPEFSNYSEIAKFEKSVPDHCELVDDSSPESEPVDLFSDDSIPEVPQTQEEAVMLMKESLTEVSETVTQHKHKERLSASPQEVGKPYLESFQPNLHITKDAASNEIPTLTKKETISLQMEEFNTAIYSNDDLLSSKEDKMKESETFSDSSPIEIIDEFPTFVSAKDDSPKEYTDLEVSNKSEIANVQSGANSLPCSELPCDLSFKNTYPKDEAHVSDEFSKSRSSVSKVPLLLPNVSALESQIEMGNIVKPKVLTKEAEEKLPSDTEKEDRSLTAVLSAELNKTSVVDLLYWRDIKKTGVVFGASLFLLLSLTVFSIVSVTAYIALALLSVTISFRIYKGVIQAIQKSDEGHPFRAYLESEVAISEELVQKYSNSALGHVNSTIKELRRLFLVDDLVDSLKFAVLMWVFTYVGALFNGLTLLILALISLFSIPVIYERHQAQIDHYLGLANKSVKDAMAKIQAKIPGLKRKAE
Briefly: co-IP; endogenous proteins, mouse brain lysate.

These are yes or no findings as the source states them, for the method shown. In cells and extracts the contact can be indirect.

Take “Apg-2 (endogenous, mouse brain) (from UniProt Q61316 1-841)”: the binding result in assay [1] is given as “no binding”.

Turning to “CaMKIIα (Ca2+/calmodulin-dependent protein kinase II) (from UniProt P11798 1-478) (enzyme)”, the binding entry in assay [2] was “no binding”.

“Hsp105 (endogenous, mouse brain) (from UniProt Q61699 1-858)”: in assay [1], the binding result is recorded as “no binding”.
